According to patent US7255856:
Results are given in words; binding and its absence hold for the method and conditions named. For some assays here: In cells and extracts the contact can be indirect. Some binding calls cover weakened binding; strength is not graded here. For some assays here: Sequences can lack the tags named with a protein. Each block holds one binder with its values, some of them ahead of it.

Experiments:
[1] = biological target: T1, F3 of fibulin-5 expressed from pGEX-4T1 (GST fusion, purified soluble fraction) (mouse) (UniProt Q9WVH9); experiment: GST pull-down (legend of FIG. 3B)
T1 sequence (looked up): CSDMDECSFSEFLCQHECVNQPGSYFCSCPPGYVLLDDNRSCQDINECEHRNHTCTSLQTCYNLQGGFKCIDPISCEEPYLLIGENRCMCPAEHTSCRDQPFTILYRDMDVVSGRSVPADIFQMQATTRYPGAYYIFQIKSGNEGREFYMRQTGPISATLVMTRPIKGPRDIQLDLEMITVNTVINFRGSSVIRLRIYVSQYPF

[2] = biological target: T1, F3 of fibulin-5 expressed from pGEX-4T1 (GST fusion, purified soluble fraction) (mouse); experiment: GST pull-down with purified L3 and F3 fragments, glutathione Sepharose beads, immunoblot
[3] = biological target: fibulin-5 (prey found in the adult rat lung library, pACT2 vector) (rat (adult rat lung library)) (UniProt Q9WVH8); experiment: yeast two-hybrid library screen (adult rat lung library, full-length LOXL1 bait)
[4] = biological target: fibulin-5 (endogenous, in wild-type mouse tissue extracts) (mouse) (UniProt Q9WVH9); experiment: co-immunoprecipitation from wild-type mouse lung extract with α-LOXL1C antibody and protein G-agarose
[5] = biological target: fibulin-5 (endogenous, in wild-type mouse tissue extracts) (mouse) (UniProt Q9WVH9); experiment: co-immunoprecipitation from lung extracts (legend of FIG. 3C)

binding [1]: binds
binding [2]: binds
B1: L3 of LOXL1 expressed from pET-28a (T7-tagged, purified soluble fraction) (protein, not shown: large carriers)
chain: PPYAANVPPEAYVPPRAVEPQPPFRVLEPPYLPVRSSDAPSQGGERNGAQQGRLSVGSVYRPNQNGRGL

binding [3]: binds
B2: full-length LOXL1 (yeast two-hybrid bait) (enzyme)
chain: QPGQGSDPGRWRQLIQWENNGQVYSLLNSGSEYVPAGPQRGETSSRVLLAGAPQTSQRRSQGGPRRRQAPSLPLPGRVGSDTVRGQTRHPFGFGQVPDNWREVAVGDSTGMARARTSVSQQRHGGSASSSVSASAFATTYRQPSSYPQQFPYPQAPFVNQYENYDPASRTYEQGYVYYRGAGGGMGAGAAAVASAGVIYPFQPRARYEDYGGGGGEEQPEYPAQGFYPAPERPYVPQPQPQPQPQPQPQPQPSDGLDRRYSHSLYNEGTPGFEQAYPDPSTDVSQAPAGAGGTYGGAGDPRLGWYPPYAANVPPEAYVPPRAVEPQPPFRVLEPPYLPVRSSDAPSQGGERNGAQQGRLSVGSVYRPNQNGRGLPDLVPDPNYVQASTYVQRAHLYSLRCAAEEKCLASTAYAPEATDYDLRVLLRFPQRVKNQGTADFLPNRPRHTWEWHSCHQHYHSMDEFSHYDLLDASTGKKVAEGHKASFCLEDSTCDFGNLKRYACTSHTQGLSPGCYDTYNADIDCQWIDITDVQPGNYILKVHVNPKYIVLESDFTNNVVRCNIHYTGRYVSTTNCKIVQS

binding [4]: binds
binding [5]: binds
B3: LOXL1 (endogenous, in wild-type mouse tissue extracts) (enzyme)
chain: B2 chain
